Test results published in article PMC11405407.
Read-outs that look alike come from different tables or passages of the source. These are yes or no findings as the source states them, for the method shown. In cells and extracts the contact can be indirect. Some binding calls cover weakened binding; strength is not graded here. For part of these data: Tags and fused reporters may be left off the sequences shown.

Chains of the proteins cited; added tags and fusions are not shown.
UniProt Q92831: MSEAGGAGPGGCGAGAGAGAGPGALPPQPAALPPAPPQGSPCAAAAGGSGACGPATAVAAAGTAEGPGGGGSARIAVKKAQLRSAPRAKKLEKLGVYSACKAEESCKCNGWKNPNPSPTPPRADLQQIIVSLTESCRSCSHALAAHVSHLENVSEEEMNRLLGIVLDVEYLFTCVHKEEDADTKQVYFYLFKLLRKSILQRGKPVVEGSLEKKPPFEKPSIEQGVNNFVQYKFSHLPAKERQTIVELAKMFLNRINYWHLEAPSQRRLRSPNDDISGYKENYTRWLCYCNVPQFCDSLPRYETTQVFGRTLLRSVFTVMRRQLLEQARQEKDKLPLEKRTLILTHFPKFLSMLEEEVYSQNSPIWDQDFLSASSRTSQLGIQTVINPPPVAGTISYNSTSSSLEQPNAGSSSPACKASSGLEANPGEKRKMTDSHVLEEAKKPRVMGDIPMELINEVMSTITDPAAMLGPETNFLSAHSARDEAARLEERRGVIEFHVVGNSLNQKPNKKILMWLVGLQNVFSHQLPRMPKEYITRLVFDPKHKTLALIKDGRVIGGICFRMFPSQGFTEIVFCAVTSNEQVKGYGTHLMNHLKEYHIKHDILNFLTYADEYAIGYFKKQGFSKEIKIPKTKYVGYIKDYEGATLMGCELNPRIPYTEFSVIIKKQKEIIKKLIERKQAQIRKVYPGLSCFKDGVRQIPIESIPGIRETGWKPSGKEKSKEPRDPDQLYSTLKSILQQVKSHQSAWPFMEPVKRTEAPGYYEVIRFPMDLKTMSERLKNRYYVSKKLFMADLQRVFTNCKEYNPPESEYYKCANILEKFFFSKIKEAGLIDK

B1: RNF123 (endogenous) (enzyme, UniProt Q5XPI4 1-1314)
chain: MASKGAGMSFSRKSYRLTSDAEKSRVTGIVQEKLLNDYLNRIFSSSEHAPPAATSRKPLNFQNLPEHLDQLLQVDNEEEESQGQVEGRLGPSTVVLDHTGGFEGLLLVDDDLLGVIGHSNFGTIRSTTCVYKGKWLYEVLISSQGLMQIGWCTISCRFNQEEGVGDTHNSYAYDGNRVRKWNVTTTNYGKAWAAGDIVSCLIDLDDGTLSFCLNGVSLGTAFENLSRGLGMAYFPAISLSFKESVAFNFGSRPLRYPVAGYRPLQDPPSADLVRAQRLLGCFRAVLSVELDPVEGRLLDKESSKWRLRGQPTVLLTLAHIFHHFAPLLRKVYLVEAVLMSFLLGIVEKGTPTQAQSVVHQVLDLLWLFMEDYEVQDCLKQLMMSLLRLYRFSPIVPDLGLQIHYLRLTIAILRHEKSRKFLLSNVLFDVLRSVVFFYIKSPLRVEEAGLQELIPTTWWPHCSSREGKESTEMKEETAEERLRRRAYERGCQRLRKRIEVVEELQVQILKLLLDNKDDNGGEASRYIFLTKFRKFLQENASGRGNMPMLCPPEYMVCFLHRLISALRYYWDEYKASNPHASFSEEAYIPPQVFYNGKVDYFDLQRLGGLLSHLRKTLKDDLASKANIVIDPLELQSTAMDDLDEDEEPAPAMAQRPMQALAVGGPLPLPRPGWLSSPTLGRANRFLSTAAVSLMTPRRPLSTSEKVKVRTLSVEQRTREDIEGSHWNEGLLLGRPPEEPEQPLTENSLLEVLDGAVMMYNLSVHQQLGKMVGVSDDVNEYAMALRDTEDKLRRCPKRRKDILAELTKSQKVFSEKLDHLSRRLAWVHATVYSQEKMLDIYWLLRVCLRTIEHGDRTGSLFAFMPEFYLSVAINSYSALKNYFGPVHSMEELPGYEETLTRLAAILAKHFADARIVGTDIRDSLMQALASYVCYPHSLRAVERIPEEQRIAMVRNLLAPYEQRPWAQTNWILVRLWRGCGFGYRYTRLPHLLKTKLEDANLPSLQKPCPSTLLQQHMADLLQQGPDVAPSFLNSVLNQLNWAFSEFIGMIQEIQQAAERLERNFVDSRQLKVCATCFDLSVSLLRVLEMTITLVPEIFLDWTRPTSEMLLRRLAQLLNQVLNRVTAERNLFDRVVTLRLPGLESVDHYPILVAVTGILVQLLVRGPASEREQATSVLLADPCFQLRSICYLLGQPEPPAPGTALPAPDRKRFSLQSYADYISADELAQVEQMLAHLTSASAQAAAASLPTSEEDLCPICYAHPISAVFQPCGHKSCKACINQHLMNNKDCFFCKTTIVSVEDWEKGANTSTTSSAA
B2: RNF123-FLAG (enzyme, UniProt Q5XPI4 1-1314)
chain: B1 chain

Assays:
[1] = target: Myc-tagged SNRNP200 (human) (UniProt O75643); experiment: co-IP; HEK293T cells transfected with tagged plasmids, IP with anti-FLAG or anti-Myc-Tag overnight at 4 °C and protein A/G magnetic beads, immunoblot; cells in 2.5 mM or 25 mM glucose, with or without TSA, where indicated
[2] = target: SNRNP200 (endogenous) (human (endogenous in MDA-MB-231 and BT-549)) (UniProt O75643); experiment: co-IP; endogenous IP in MPS2 cells (BT-549 treated with glucose at the indicated concentrations), immunoblot
[3] = target: SNRNP200 (endogenous) (human (endogenous in MDA-MB-231 and BT-549)) (UniProt O75643); experiment: as above; remark: listed apart in the source
[4] = target: Myc-tagged SNRNP200 (human) (UniProt O75643); experiment: co-IP; HEK293T cells transfected with tagged plasmids, IP with anti-FLAG or anti-Myc-Tag overnight at 4 °C and protein A/G magnetic beads, immunoblot; cells in 2.5 mM or 25 mM glucose, with or without TSA, where indicated; remark: listed apart in the source

Row | Molecule | binding [1] | binding [2] | also measured
1 | HDAC5-FLAG (overexpressed histone deacetylase 5) (from UniProt Q9UQL6 1-1122) (enzyme) | binds |  | 
2 | PCAF (endogenous) (from UniProt Q92831 1-832) (enzyme) |  | binds | 
3 | Flag-tagged PCAF (from UniProt Q92831 1-832) (enzyme) | binds |  | 
4 | HDAC5 (endogenous) (from UniProt Q9UQL6 1-1122) (enzyme) |  | binds | 
5 | B1 |  |  | binding [3]: binds
6 | B2 |  |  | binding [4]: binds
